Patent US20130259829A1 (The Regents of the University of Colorado, A Body Corporate, priority 2008, published 2013)

Assay: peptide made by a vendor
Details: whole synthesis

Final HPLC purity, >95%:
FRIMAVLASANSGFRIMAVLASGGQY
FRIMAVLASSGGGANSGFRIMAVLASGGQY (biotinylated)
SKMRMATPLLMQALY
SGGGSKMRMATPLLMQALY (biotinylated)
KALVQNDTLLQVKG

Where a sequence shows no end group, the ends are not given. The same purity stands for every peptide and may come from a single statement.
